Data: publication PMC12579238
No constants are given. Whether binding was seen depends on the method and setting. Binding seen in cells or lysates may run through a third protein. These calls come from enrichment with a bait or labelling near it, and not all partners need be listed. Blank lines part the entries; values can stand above or below the binder they belong to.

Target: T1, CLN7 (human (endogenous in SH-SY5Y)) (UniProt Q8NHS3)
T1 sequence: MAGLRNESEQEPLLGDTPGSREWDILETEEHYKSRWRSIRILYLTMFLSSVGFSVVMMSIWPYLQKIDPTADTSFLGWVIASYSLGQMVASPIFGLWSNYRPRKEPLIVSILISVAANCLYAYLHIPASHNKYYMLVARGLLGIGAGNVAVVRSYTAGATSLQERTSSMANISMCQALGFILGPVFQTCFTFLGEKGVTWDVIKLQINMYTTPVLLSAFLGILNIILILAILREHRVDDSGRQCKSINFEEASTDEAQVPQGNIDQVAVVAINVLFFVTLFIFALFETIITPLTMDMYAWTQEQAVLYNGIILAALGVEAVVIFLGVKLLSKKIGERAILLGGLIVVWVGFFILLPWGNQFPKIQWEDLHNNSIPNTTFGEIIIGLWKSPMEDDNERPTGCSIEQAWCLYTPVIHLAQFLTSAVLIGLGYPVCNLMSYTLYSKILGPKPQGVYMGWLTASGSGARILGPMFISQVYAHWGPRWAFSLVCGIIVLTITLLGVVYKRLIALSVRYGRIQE
Test: affinity purification with mass spectrometry; endogenous CLN7 immunoprecipitated from 2.5 mg SH-SY5Y lysate with a polyclonal anti-CLN7 antibody raised against L9 (351-421aa, Proteintech) on G-sepharose beads; IgG as non-specific binding control; 4 independent replicates; cells under steady state culture conditions

B1: RBM20 (protein, UniProt Q5T481 1-1227)
chain: MVLAAAMSQDADPSGPEQPDRVACSVPGARASPAPSGPRGMQQPPPPPQPPPPPQAGLPQIIQNAAKLLDKNPFSVSNPNPLLPSPASLQLAQLQAQLTLHRLKLAQTAVTNNTAAATVLNQVLSKVAMSQPLFNQLRHPSVITGPHGHAGVPQHAAAIPSTRFPSNAIAFSPPSQTRGPGPSMNLPNQPPSAMVMHPFTGVMPQTPGQPAVILGIGKTGPAPATAGFYEYGKASSGQTYGPETDGQPGFLPSSASTSGSVTYEGHYSHTGQDGQAAFSKDFYGPNSQGSHVASGFPAEQAGGLKSEVGPLLQGTNSQWESPHGFSGQSKPDLTAGPMWPPPHNQPYELYDPEEPTSDRTPPSFGGRLNNSKQGFIGAGRRAKEDQALLSVRPLQAHELNDFHGVAPLHLPHICSICDKKVFDLKDWELHVKGKLHAQKCLVFSENAGIRCILGSAEGTLCASPNSTAVYNPAGNEDYASNLGTSYVPIPARSFTQSSPTFPLASVGTTFAQRKGAGRVVHICNLPEGSCTENDVINLGLPFGKVTNYILMKSTNQAFLEMAYTEAAQAMVQYYQEKSAVINGEKLLIRMSKRYKELQLKKPGKAVAAIIQDIHSQRERDMFREADRYGPERPRSRSPVSRSLSPRSHTPSFTSCSSSHSPPGPSRADWGNGRDSWEHSPYARREEERDPAPWRDNGDDKRDRMDPWAHDRKHHPRQLDKAELDERPEGGRPHREKYPRSGSPNLPHSVSSYKSREDGYYRKEPKAKSDKYLKQQQDAPGRSRRKDEARLRESRHPHPDDSGKEDGLGPKVTRAPEGAKAKQNEKNKTKRTDRDQEGADDRKENTMAENEAGKEEQEGMEESPQSVGRQEKEAEFSDPENTRTKKEQDWESESEAEGESWYPTNMEELVTVDEVGEEEDFIVEPDIPELEEIVPIDQKDKICPETCLCVTTTLDLDLAQDFPKEGVKAVGNGAAEISLKSPRELPSASTSCPSDMDVEMPGLNLDAERKPAESETGLSLEDSDCYEKEAKGVESSDVHPAPTVQQMSSPKPAEERARQPSPFVDDCKTRGTPEDGACEGSPLEEKASPPIETDLQNQACQEVLTPENSRYVEMKSLEVRSPEYTEVELKQPLSLPSWEPEDVFSELSIPLGVEFVVPRTGFYCKLCGLFYTSEETAKMSHCRSAVHYRNLQKYLSQLAEEGLKETEGADSPRPEDSGIVPRFERKKL
- binding: binds

B3: ATXN2L (protein, UniProt Q8WWM7 1-1075)
chain: MLKPQPLQQPSQPQQPPPTQQAVARRPPGGTSPPNGGLPGPLATSAAPPGPPAAASPCLGPVAAAGSGLRRGAEGILAPQPPPPQQHQERPGAAAIGSARGQSTGKGPPQSPVFEGVYNNSRMLHFLTAVVGSTCDVKVKNGTTYEGIFKTLSSKFELAVDAVHRKASEPAGGPRREDIVDTMVFKPSDVMLVHFRNVDFNYATKDKFTDSAIAMNSKVNGEHKEKVLQRWEGGDSNSDDYDLESDMSNGWDPNEMFKFNEENYGVKTTYDSSLSSYTVPLEKDNSEEFRQRELRAAQLAREIESSPQYRLRIAMENDDGRTEEEKHSAVQRQGSGRESPSLASREGKYIPLPQRVREGPRGGVRCSSSRGGRPGLSSLPPRGPHHLDNSSPGPGSEARGINGGPSRMSPKAQRPLRGAKTLSSPSNRPSGETSVPPPPAVGRMYPPRSPKSAAPAPISASCPEPPIGSAVPTSSASIPVTSSVSDPGVGSISPASPKISLAPTDVKELSTKEPGRTLEPQELARIAGKVPGLQNEQKRFQLEELRKFGAQFKLQPSSSPENSLDPFPPRILKEEPKGKEKEVDGLLTSEPMGSPVSSKTESVSDKEDKPPLAPSGGTEGPEQPPPPCPSQTGSPPVGLIKGEDKDEGPVAEQVKKSTLNPNAKEFNPTKPLLSVNKSTSTPTSPGPRTHSTPSIPVLTAGQSGLYSPQYISYIPQIHMGPAVQAPQMYPYPVSNSVPGQQGKYRGAKGSLPPQRSDQHQPASAPPMMQAAAAAGPPLVAATPYSSYIPYNPQQFPGQPAMMQPMAHYPSQPVFAPMLQSNPRMLTSGSHPQAIVSSSTPQYPSAEQPTPQALYATVHQSYPHHATQLHAHQPQPATTPTGSQPQSQHAAPSPVQHQAGQAPHLGSGQPQQNLYHPGALTGTPPSLPPGPSAQSPQSSFPQPAAVYAIHHQQLPHGFTNMAHVTQAHVQTGITAAPPPHPGAPHPPQVMLLHPPQSHGGPPQGAVPQSGVPALSASTPSPYPYIGHPQGEQPGQAPGFPGGADDRIREFSLAGGIWHGRAEGLQVGQDARVLGGE
- binding: binds

B5: RALGAPB (protein, UniProt Q86X10 1-1494)
chain: MYSEWRSLHLVIQNDQGHTSVLHSYPESVGREVANAVVRPLGQVLGTPSVAGSENLLKTDKEVKWTMEVICYGLTLPLDGETVKYCVDVYTDWIMALVLPKDSIPLPVIKEPNQYVQTILKHLQNLFVPRQEQGSSQIRLCLQVLRAIQKLARESSLMARETWEVLLLFLLQINDILLAPPTVQGGIAENLAEKLIGVLFEVWLLACTRCFPTPPYWKTAKEMVANWRHHPAVVEQWSKVICALTSRLLRFTYGPSFPAFKVPDEDASLIPPEMDNECVAQTWFRFLHMLSNPVDLSNPAIISSTPKFQEQFLNVSGMPQELNQYPCLKHLPQIFFRAMRGISCLVDAFLGISRPRSDSAPPTPVNRLSMPQSAAVSTTPPHNRRHRAVTVNKATMKTSTVSTAHASKVQHQTSSTSPLSSPNQTSSEPRPLPAPRRPKVNSILNLFGSWLFDAAFVHCKLHNGINRDSSMTAITTQASMEFRRKGSQMSTDTMVSNPMFDASEFPDNYEAGRAEACGTLCRIFCSKKTGEEILPAYLSRFYMLLIQGLQINDYVCHPVLASVILNSPPLFCCDLKGIDVVVPYFISALETILPDRELSKFKSYVNPTELRRSSINILLSLLPLPHHFGTVKSEVVLEGKFSNDDSSSYDKPITFLSLKLRLVNILIGALQTETDPNNTQMILGAMLNIVQDSALLEAIGCQMEMGGGENNLKSHSRTNSGISSASGGSTEPTTPDSERPAQALLRDYALNTDSAAGLLIRSIHLVTQRLNSQWRQDMSISLAALELLSGLAKVKVMVDSGDRKRAISSVCTYIVYQCSRPAPLHSRDLHSMIVAAFQCLCVWLTEHPDMLDEKDCLKEVLEIVELGISGSKSKNNEQEVKYKGDKEPNPASMRVKDAAEATLTCIMQLLGAFPSPSGPASPCSLVNETTLIKYSRLPTINKHSFRYFVLDNSVILAMLEQPLGNEQNDFFPSVTVLVRGMSGRLAWAQQLCLLPRGAKANQKLFVPEPRPVPKNDVGFKYSVKHRPFPEEVDKIPFVKADLSIPDLHEIVTEELEERHEKLRSGMAQQIAYEIHLEQQSEEELQKRSFPDPVTDCKPPPPAQEFQTARLFLSHFGFLSLEALKEPANSRLPPHLIALDSTIPGFFDDIGYLDLLPCRPFDTVFIFYMKPGQKTNQEILKNVESSRTVQPHFLEFLLSLGWSVDVGRHPGWTGHVSTSWSINCCDDGEGSQQEVISSEDIGASIFNGQKKVLYYADALTEIAFVVPSPVESLTDSLESNISDQDSDSNMDLMPGILKQPSLTLELFPNHTDNLNSSQRLSPSSRMRKLPQGRPVPPLGPETRVSVVWVERYDDIENFPLSELMTEISTGVETTANSSTSLRSTTLEKEVPVIFIHPLNTGLFRIKIQGATGKFNMVIPLVDGMIVSRRALGFLVRQTVINICRRKRLESDSYSPPHVRRKQKITDIVNKYRNKQLEPEFYTSLFQEVGLKNCSS
- binding: binds

B6: RAE1 (protein, UniProt P78406 1-368)
chain: MSLFGTTSGFGTSGTSMFGSATTDNHNPMKDIEVTSSPDDSIGCLSFSPPTLPGNFLIAGSWANDVRCWEVQDSGQTIPKAQQMHTGPVLDVCWSDDGSKVFTASCDKTAKMWDLSSNQAIQIAQHDAPVKTIHWIKAPNYSCVMTGSWDKTLKFWDTRSSNPMMVLQLPERCYCADVIYPMAVVATAERGLIVYQLENQPSEFRRIESPLKHQHRCVAIFKDKQNKPTGFALGSIEGRVAIHYINPPNPAKDNFTFKCHRSNGTNTSAPQDIYAVNGIAFHPVHGTLATVGSDGRFSFWDKDARTKLKTSEQLDQPISACCFNHNGNIFAYASSYDWSKGHEFYNPQKKNYIFLRNAAEELKPRNKK
- binding: binds

Now from value to binder:

- binding: binds
B2: SART1 (protein, UniProt O43290 1-800)
chain: MGSSKKHRGEKEAAGTTAAAGTGGATEQPPRHREHKKHKHRSGGSGGSGGERRKRSRERGGERGSGRRGAEAEARSSTHGRERSQAEPSERRVKREKRDDGYEAAASSKTSSGDASSLSIEETNKLRAKLGLKPLEVNAIKKEAGTKEEPVTADVINPMALRQREELREKLAAAKEKRLLNQKLGKIKTLGEDDPWLDDTAAWIERSRQLQKEKDLAEKRAKLLEEMDQEFGVSTLVEEEFGQRRQDLYSARDLQGLTVEHAIDSFREGETMILTLKDKGVLQEEEDVLVNVNLVDKERAEKNVELRKKKPDYLPYAEDESVDDLAQQKPRSILSKYDEELEGERPHSFRLEQGGTADGLRERELEEIRAKLRLQAQSLSTVGPRLASEYLTPEEMVTFKKTKRRVKKIRKKEKEVVVRADDLLPLGDQTQDGDFGSRLRGRGRRRVSEVEEEKEPVPQPLPSDDTRVENMDISDEEEGGAPPPGSPQVLEEDEAELELQKQLEKGRRLRQLQQLQQLRDSGEKVVEIVKKLESRQRGWEEDEDPERKGAIVFNATSEFCRTLGEIPTYGLAGNREEQEELMDFERDEERSANGGSESDGEENIGWSTVNLDEEKQQQDFSASSTTILDEEPIVNRGLAAALLLCQNKGLLETTVQKVARVKAPNKSLPSAVYCIEDKMAIDDKYSRREEYRGFTQDFKEKDGYKPDVKIEYVDETGRKLTPKEAFRQLSHRFHGKGSGKMKTERRMKKLDEEALLKKMSSSDTPLGTVALLQEKQKAQKTPYIVLSGSGKSMNANTITK

- binding: binds
B4: RBM28 (protein, UniProt Q9NW13 1-759)
chain: MAGLTLFVGRLPPSARSEQLEELFSQVGPVKQCFVVTEKGSKACRGFGYVTFSMLEDVQRALKEITTFEGCKINVTVAKKKLRNKTKEKGKNENSECPKKEPKAKKAKVADKKARLIIRNLSFKCSEDDLKTVFAQFGAVLEVNIPRKPDGKMRGFGFVQFKNLLEAGKALKGMNMKEIKGRTVAVDWAVAKDKYKDTQSVSAIGEEKSHESKHQESVKKKGREEEDMEEEENDDDDDDDDEEDGVFDDEDEEEENIESKVTKPVQIQKRAVKRPAPAKSSDHSEEDSDLEESDSIDDGEELAQSDTSTEEQEDKAVQVSNKKKRKLPSDVNEGKTVFIRNLSFDSEEEELGELLQQFGELKYVRIVLHPDTEHSKGCAFAQFMTQEAAQKCLLAASPENEAGGLKLDGRQLKVDLAVTRDEAAKLQTTKVKKPTGTRNLYLAREGLIRAGTKAAEGVSAADMAKRERFELLKHQKLKDQNIFVSRTRLCLHNLPKAVDDKQLRKLLLSATSGEKGVRIKECRVMRDLKGVHGNMKGQSLGYAFAEFQEHEHALKALRLINNNPEIFGPLKRPIVEFSLEDRRKLKMKELRIQRSLQKMRSKPATGEPQKGQPEPAKDQQQKAAQHHTEEQSKVPPEQKRKAGSTSWTGFQTKAEVEQVELPDGKKRRKVLALPSHRGPKIRLRDKGKVKPVHPKKPKPQINQWKQEKQQLSSEQVSRKKAKGNKTETRFNQLVEQYKQKLLGPSKGAPLAKRSKWFDS
